Laboratory results as given in patent publication US20100004156A1, “Small Compounds That Correct Protein Misfolding and Uses Thereof” (priority 2005, published 2010).
At least one structure is not confirmed: it was looked up by name or label, or the drawing left a doubt.

Tested on: mutant P23H opsin
Test: Recovery of correctly folded P23H rhodopsin from tetracycline-inducible HEK293 cells (immunoaffinity purification, absorbance at 500 nm)
Type: cell-based
Conditions: in the presence of 11-cis-retinal; statement covers the rhodopsins of Table 1 (P23H and WT)
Experimental: Mutant P23H and wild-type opsins were expressed separately in tetracycline-inducible stable HEK293 cell lines in the presence of 11-cis retinal and various inhibitors. At forty-eight hours, the folded proteins were immununoaffinity purified and quantitated by UV-visible spectroscopy. The total amount of opsin protein was assayed at 280 nm. The amount of rhodopsin present in a biochemically functional conformation was assayed at 500 nm. Immunofluorescence microscopy was also performed to determine the cellular location of the proteins.
Stable wild-type and P23H opsin expressing HEK293 cell lines were generated in the Flp-In T-Rex system (Invitrogen). The BEK293 cells were grown in DMEM high glucose media supplemented with 10% fetal bovine serum, antibiotic-antimycotic solution, 5 μg/ml blasticidin and hygromycin at 37° C. in the presence of 8% CO2.
The opsin expressing HEK293 cell lines were allowed to reach confluence and were induced with 1 μg/ml tetracycline after a change of media. 10 μM 11-cis retinal was immediately added after induction under a red light, and inhibitors were added concurrently at the concentrations shown in Table 2 (below).
The plates were incubated for forty-eight hours. 10 uM of retinal was provided twenty-four hours after the first application, under red light. […]

## COC1=C2C[C@@H](C)C[C@H](OC)[C@H](O)[C@@H](C)/C=C(\C)[C@H](OC(N)=O)[C@@H](OC)/C=C\C=C(/C)C(=O)NC(=CC1=O)C2=O [Geldanamycin]
  recovery of folded rhodopsins: increased the recovery
